This passage reports binding results from article PMC2267488.

The chains behind the UniProt entries cited, without tags or fusion partners. Where a name states a change or a piece, a line headed by the entry shows the natural chain unless it says otherwise.
UniProt Q8IYF3: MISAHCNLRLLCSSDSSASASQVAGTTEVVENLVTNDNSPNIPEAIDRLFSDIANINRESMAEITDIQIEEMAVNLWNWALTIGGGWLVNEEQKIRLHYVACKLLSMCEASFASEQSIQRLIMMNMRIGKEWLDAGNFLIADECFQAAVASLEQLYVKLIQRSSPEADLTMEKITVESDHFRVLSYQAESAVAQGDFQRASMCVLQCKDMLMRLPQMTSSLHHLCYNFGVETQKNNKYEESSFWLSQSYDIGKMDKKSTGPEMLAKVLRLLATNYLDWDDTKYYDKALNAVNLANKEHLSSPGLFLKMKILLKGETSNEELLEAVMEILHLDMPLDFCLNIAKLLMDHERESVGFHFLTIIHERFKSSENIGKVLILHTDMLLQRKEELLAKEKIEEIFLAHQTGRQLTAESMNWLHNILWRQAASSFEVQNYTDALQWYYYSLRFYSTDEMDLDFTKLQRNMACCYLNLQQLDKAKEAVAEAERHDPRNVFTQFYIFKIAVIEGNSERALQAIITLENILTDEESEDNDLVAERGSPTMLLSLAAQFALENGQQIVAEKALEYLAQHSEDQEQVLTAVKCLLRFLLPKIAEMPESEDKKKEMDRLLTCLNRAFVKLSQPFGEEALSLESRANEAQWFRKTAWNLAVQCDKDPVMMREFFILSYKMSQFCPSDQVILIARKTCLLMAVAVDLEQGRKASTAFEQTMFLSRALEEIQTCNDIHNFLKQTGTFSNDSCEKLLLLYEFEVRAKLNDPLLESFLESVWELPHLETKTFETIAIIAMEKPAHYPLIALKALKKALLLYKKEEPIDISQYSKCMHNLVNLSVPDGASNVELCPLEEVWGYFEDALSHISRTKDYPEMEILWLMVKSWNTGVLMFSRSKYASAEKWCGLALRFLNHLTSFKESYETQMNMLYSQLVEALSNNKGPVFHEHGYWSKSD
UniProt O60934: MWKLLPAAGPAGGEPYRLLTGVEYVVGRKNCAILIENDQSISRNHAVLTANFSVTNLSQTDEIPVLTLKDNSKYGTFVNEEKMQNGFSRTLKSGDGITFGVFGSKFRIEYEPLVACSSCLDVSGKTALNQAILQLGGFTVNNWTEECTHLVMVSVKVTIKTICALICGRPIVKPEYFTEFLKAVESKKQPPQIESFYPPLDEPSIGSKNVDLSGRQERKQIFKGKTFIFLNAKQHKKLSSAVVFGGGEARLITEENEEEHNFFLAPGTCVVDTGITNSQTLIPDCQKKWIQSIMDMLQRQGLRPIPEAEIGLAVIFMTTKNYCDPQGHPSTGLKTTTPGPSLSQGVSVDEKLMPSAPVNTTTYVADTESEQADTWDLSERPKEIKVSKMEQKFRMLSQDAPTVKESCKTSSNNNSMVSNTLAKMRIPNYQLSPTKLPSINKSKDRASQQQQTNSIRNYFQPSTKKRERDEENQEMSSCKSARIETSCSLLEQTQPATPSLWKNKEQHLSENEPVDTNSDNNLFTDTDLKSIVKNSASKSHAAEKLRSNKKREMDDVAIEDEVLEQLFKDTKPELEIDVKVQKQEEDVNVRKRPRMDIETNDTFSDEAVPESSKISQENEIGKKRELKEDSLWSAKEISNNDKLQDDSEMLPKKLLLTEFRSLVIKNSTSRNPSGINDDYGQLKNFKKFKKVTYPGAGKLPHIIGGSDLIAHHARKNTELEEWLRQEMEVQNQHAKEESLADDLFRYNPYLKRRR

The target in the assay is MYC-tagged human ZIP4H (human) (UniProt Q8IYF3). As to the kind of experiment: co-IP; IP-Western blots on 293T cells transiently expressing MYC-tagged human ZIP4H; endogenous NBS1.

No constants are given. Whether binding was seen depends on the method and setting. Binding seen in cells or lysates may run through a third protein. Binding calls can cover weak binding; strength is not graded here.

With “Endogenous human NBS1 (from UniProt O60934 1-754)”, the binding entry is listed as “binds weakly”.
